Among all 320,000 compounds or so, about 22,000 (6.9%) were called active. This list was built around the results that the source calls inconclusive (neither active nor inactive); the mix of calls is not that of the screen. The call rests on the fitted dose curve; in most records, active means well fitted inhibition curve with a large enough effect; inconclusive means small, poorly fitted or top-dose-only effect, or another doubt; inactive means no such curve, though single readings can be large or run the other way. A potency beside an inconclusive call is a rough fit, not a confirmed value.
experiment: Primary qHTS for delayed death inhibitors of the malarial parasite plastid, 96 hour incubation; conditions: P. falciparum luciferase reporter growth; series mostly up to 28.7 µM
Procedure, shortened: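 Luminescence readout: decreased luciferase signal marks inhibited growth of reporter-expressing P. falciparum in infected red cells (2% hematocrit, 0.05% parasitemia final), exposed to compound two generations (96 h, 37 C, 5% CO2).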
Potency means the concentration at half of the fitted maximal effect.

Compound	Potency
O=c1c2nccnc2[nH]c(=S)n1Cc1ccccc1	inconclusive: 18.5 µM [inhibitor, single point]
O=C(Nc1ccc(Cl)cc1)N1CC2CC(C1)c1cccc(=O)n1C2 (stereo unspecified)	inactive
CC(=O)N1CSCC1C(=O)NNS(=O)(=O)c1ccccc1 (stereo unspecified)	inactive
CCSc1ccc([C@@H]2[C@H]3C(=O)N(C)C(=O)[C@H]3[C@]3(C(=O)OC)CCCCN23)cc1	inconclusive: 18.5 µM [inhibitor, single point]
CC/C(=N\NC(=O)c1nnn(-c2nonc2N)c1-c1ccc2c(c1)OCO2)c1ccccc1	inconclusive: 3.7 µM [inhibitor, partial curve, poor fit]
COc1ccc2cc(OC)c(C(=O)N3CCOCC3)cc2c1	inactive
CCn1ncc(Br)c1C(=O)Nc1c(C)nn(Cc2c(F)c(F)c(F)c(F)c2F)c1C	inconclusive: 18.5 µM [inhibitor, single point]
O=C(CN1CCN(Cc2ccccc2Cl)CC1)N/N=C/c1cccs1	inactive
O=C(COc1ccc(Cl)cc1)N1CCN(Cc2ccc([N+](=O)[O-])cc2)CC1	inconclusive: 18.5 µM [inhibitor, single point]
Cc1cccc(NS(=O)(=O)c2nnc(NC(=O)CC(C)C)s2)c1	inactive
COc1ccc(NC(=O)CN2CCN(S(=O)(=O)c3ccc(C(C)C)cc3)CC2)cc1OC	inactive
CC1CN(C(=O)N2CCCCC2)CCN1C(=O)N1CCCCC1 (stereo unspecified)	inconclusive: 11.7 µM [inhibitor, single point]
COC(=O)C1=C(NC(=O)C2CCCCC2)CCS1	inactive
COc1ccc(CN(CCC#N)CCC2(c3ccccc3)CC(C)N(C)CC2C)cc1OC (stereo unspecified)	inconclusive: 9.28 µM [inhibitor, partial curve, poor fit]
N/C(=N\OC(=O)COc1ccc2ccccc2c1)c1cccnc1	inactive
Cc1ccc(C(=O)Nc2ccccc2C(=O)NCc2ccccc2)cc1	inconclusive: 18.5 µM [inhibitor, single point]
CCN(Cc1ccccc1)S(=O)(=O)c1c(C)[nH]c(C)c1C(=O)N1CCCCC1	inconclusive: 4.15 µM [inhibitor, full curve]
C/C(=N\Nc1ccc2nncn2n1)c1cccs1	inactive
Nc1nc(-c2nc3ccccc3[nH]2)cs1	inactive
O=C(CCC(=O)N(CC(=O)NC1CCCCC1)Cc1ccccc1)Nc1ccccn1	inactive
COCc1nc2ccccc2n1Cc1ccccc1Br	inconclusive: 1.17 µM [inhibitor, partial curve, poor fit]
COc1ccc(-c2csc3ncnc(N4CCN(Cc5ccccc5)CC4)c23)cc1	active: 6.57 µM
O=C(C1CCCN(S(=O)(=O)c2cnc[nH]2)C1)N1CC(=O)N(CCc2ccccc2)C(=O)C1 (stereo unspecified)	inconclusive: 7.38 µM [inhibitor, partial curve]
CN1CCN(NC(=O)Nc2ccc(F)cc2)CC1	inconclusive: 20.8 µM [inhibitor, single point]

Compound	Potency
Cc1ccc(O)c(NC(=O)C2CCCCC2)c1	inconclusive: 0.415 µM [inhibitor, full curve, poor fit]
CCOC(=O)c1c(C)[nH]c(C)c1C(=O)COC(=O)c1ccc([N+](=O)[O-])s1	inconclusive: 18.5 µM [inhibitor, single point]
CC(C)C(NC(=O)c1ccc(C(C)(C)C)cc1)C(=O)NCc1ccccn1 (stereo unspecified)	inactive
Cc1cc(C(F)(F)F)nn1Cc1ccc(C(=O)NCc2ccco2)o1	inconclusive: 9.28 µM [inhibitor, partial curve, poor fit]
FC(F)(F)c1ccc(CN2C[C@@H]3C(c4ccc(Cl)nc4)C4(c5cccnc5)CC3(C4)[C@H]2c2ccccc2)cc1 (stereo partly specified)	active: 2.33 µM
CCc1ccc(C(=O)NNC(=O)c2c(CC)noc2C)cc1	inactive
CCOc1ccc(CCNC(=O)COC(=O)COc2ccc(C(C)=O)cc2)cc1OCC	inconclusive: 11.7 µM [inhibitor, single point]
CN(c1ccccc1)S(=O)(=O)c1cccc(NC(=O)COC(=O)C2CCCCC2)c1	inactive
C=CCNC(=S)Nc1ccc(OC(=O)Nc2ccc(Cl)c(Cl)c2)cc1	inconclusive: 9.28 µM [inhibitor, single point]
CC(=O)Nc1ccc(NC(=O)C/C(C)=N/NC(N)=S)cc1	active: 1.85 µM
Cc1ccc(-n2nc3c(=O)n(C(C)C(=O)NCCCc4ccccc4)nc(C)c3c2C)cc1 (stereo unspecified)	active: 8.28 µM
Cc1ccccc1-n1c(Cn2c(=O)sc3ccccc32)nnc1SCC(=O)N1CCCC1	inconclusive: 0.0738 µM [inhibitor, full curve, poor fit]
O=C(O)c1ccc(N2CCCCC2)cc1	inconclusive: 14.7 µM [inhibitor, single point]
CCOc1ccc(S(=O)(=O)/N=C(/c2ccccc2)N(C)C)cc1	inconclusive: 13.1 µM [inhibitor, single point]
Oc1ccc(NCc2ccccc2OCc2ccccc2F)cc1	inconclusive: 14.7 µM [inhibitor, single point]
CC(/C=N/NC(=O)c1cc(-c2ccc(C)s2)[nH]n1)=C\c1ccccc1	inconclusive: 11.7 µM [inhibitor, single point]
Cc1ccc(OCCCCn2cnc3ccccc32)c(C)c1	inconclusive: 9.28 µM [inhibitor, single point]
CC(NC(=O)CN1C(=O)NC2(CCCCCC2)C1=O)c1ccccc1Cl (stereo unspecified)	inactive
Cc1ccccc1OCC1CNC(=O)O1 (stereo unspecified)	inconclusive: 2.33 µM [inhibitor, full curve, poor fit]
COC(=O)CCC[N+](C)(C)C	active: 10.7 µM
COC(=O)c1ccccc1NC(=O)c1ccc(-c2ccc(Br)cc2)o1	inconclusive: 18.5 µM [inhibitor, single point]
CCN(Cc1ccccc1)S(=O)(=O)c1cc(C(=O)NC2CCCCCC2)ccc1OC	inconclusive: 4.15 µM [inhibitor, single point]
COc1ccc(-c2c3c(=O)n(C)c(=O)n(C)c3cn2C2CCCCC2)cc1	inactive
COc1ccc(CCNC(=O)C2CCCN(S(=O)(=O)c3cc(C)ccc3OC)C2)cc1OC (stereo unspecified)	active: 5.22 µM

Compound	Potency
Cc1cccc(N(CC(=O)NCc2ccccc2)C(=O)Cn2nnc(-c3ccc(C)o3)n2)c1	inconclusive: 7.38 µM [inhibitor, partial curve, poor fit]
COc1ccc(O)c(C(=O)c2cnc3onc(C)c3c2)c1	active: 9.28 µM
Cc1ccc(C(=O)Nc2ccc(N3CCN(C)CC3)cc2)c(Cl)c1	active: 10.4 µM
CCC(C)/C(C)=N/NC(=O)CNS(=O)(=O)c1ccc([N+](=O)[O-])cc1 (stereo unspecified)	inconclusive: 8.28 µM [inhibitor, partial curve]
CC(=O)Nc1ccc(S(=O)(=O)NCCSCc2cccc(Cl)c2)cc1	inconclusive: 4.15 µM [inhibitor, single point]
Cc1ccccc1NC(=O)CON=C(N)c1ccccc1	inconclusive: 16.5 µM [inhibitor, single point]
COc1ccc(-c2ccc3c(c2)c(-c2cccs2)c(-c2cc(OC)cc(OC)c2)n3C)cc1	inconclusive: 7.38 µM [inhibitor, single point]
CCCOc1ccc(N2CC(C(=O)Nc3ccccc3C(=O)NC)CC2=O)cc1 (stereo unspecified)	inconclusive: 11.7 µM [inhibitor, single point]
CC(=O)N1c2ccc(S(=O)(=O)NCCC(=O)Nc3ccccc3C)cc2CC1C (stereo unspecified)	inactive
CC(C)n1nccc1N(Cc1ccc(Cl)cc1)S(=O)(=O)c1ccccc1	inconclusive: 14.7 µM [inhibitor, single point]
O=C(Nc1ccc(N2CCCCC2)c(Cl)c1)c1cccnc1	inactive
C#CCOC(=O)CCC(=O)Nc1cc(OC)nc(OC)n1	inconclusive: 13.1 µM [inhibitor, partial curve, poor fit]
O=C(/C=C/c1cccs1)Nc1ccc(N2CCOCC2)c(S(=O)(=O)Nc2ccccc2Cl)c1	inconclusive: 18.5 µM [inhibitor, single point]
C#CC(C)(CC)NC(=O)c1cc2cccc(CC=C)c2oc1=O (stereo unspecified)	inconclusive: 11.7 µM [inhibitor, partial curve, poor fit]
COCCOC1CCN(C(=O)C2CCC(=O)N(CCc3ccc(OC)cc3)C2)CC1 (stereo unspecified)	inconclusive: 18.5 µM [inhibitor, single point]
COc1cccc(OCCSc2nc(C)c(Cc3ccccc3)c(=O)[nH]2)c1	inconclusive: 4.15 µM [inhibitor, single point]
CC(=O)Nc1ccc(S(=O)(=O)NCCC(=O)NCCCc2ccccc2)cc1	inconclusive: 3.7 µM [inhibitor, partial curve, poor fit]
Cc1ccc(N=C(NOCc2ccc(Cl)cc2Cl)c2nonc2N)c(C)c1	active: 11.7 µM
COC(=O)CSc1nc(C)cc(C)c1C#N	inconclusive: 18.5 µM [inhibitor, single point]
CCOC(=O)c1cc(NC(=O)c2ccoc2C)cc(C(=O)OCC)c1	inactive
CCOC(=O)C1(C)/C(=N/Nc2ccc(S(N)(=O)=O)cc2)C(=O)C(=O)N1c1ccccc1 (stereo unspecified)	inconclusive: 10.4 µM [inhibitor, single point]
COc1cc(CN2CCN(Cc3ccc(C(F)(F)F)cc3)CC2)cc(OC)c1OC	inconclusive: 10.4 µM [inhibitor, single point]
CS(=O)(=O)NCCCCCCNS(C)(=O)=O	inactive

Single values from above:
Value for Cc1ccc(C(=O)Nc2ccc(N3CCN(C)CC3)cc2)c(Cl)c1 under Potency: active: 10.4 µM
Value for CCCOc1ccc(N2CC(C(=O)Nc3ccccc3C(=O)NC)CC2=O)cc1 (stereo unspecified) under Potency: inconclusive: 11.7 µM [inhibitor, single point]
Value for CC(C)n1nccc1N(Cc1ccc(Cl)cc1)S(=O)(=O)c1ccccc1 under Potency: inconclusive: 14.7 µM [inhibitor, single point]
